US20260116925A1
These are yes or no findings as the source states them, for the method shown. Some binding calls cover weakened binding; strength is not graded here. Tags and fused reporters may be left off the sequences shown.

Assays:
[1] = target: recombinant Serpinb3a (mouse-derived), 6×His-tagged, produced in E. coli (mouse); test: anti-6×His western blot of recombinant protein (self-association, dimer)
[2] = target: recombinant Serpinb3a (mouse-derived), 6×His-tagged, produced in E. coli (mouse); test: Western blot (self-association, dimer)

B1: recombinant Serpinb3a (mouse-derived), 6×His-tagged, produced in E. coli (protein)
chain: HHHHHHMHLFAEATTKFTLELYRQLRESDNNIFYSPISMMTALAMLQLGAKGNTEKQIEKVLQFNETTKKTTEKSAHCHDEENVHEQFQKLMTQLNKSNDAYDLKAANSIYGAKGFPFVQTFLEDIKEYYQANVESLDFEHAAEESEKKINSWVESQTNGKIKDLFPNGSLNRSTIMVLVNAVYFKGQWNHKFDEKHTTEEKFWLNKNTSKPVQMMKQNIEFNFMFLEDVQAKIVEIPYKGKELSMIVLLPVEINGLKQLEEQLTADKLLEWTRAENMHMTELYLSLPRFKVDEKYDLPIPLEHMGMVDAFDPQKADFSGMSSTQGLVVSKVLHKSFVEVNEEGTEAAAATGVEVSLTSAQIAEDFCCDHPFLFFIIHRKTNSILFFGRISSP
binding [1]: binds | binding [2]: binds
